This is an account of results in article doi:10.1101/812990.

The chains behind the UniProt entries cited, without tags or fusion partners.
UniProt Q9ESK9: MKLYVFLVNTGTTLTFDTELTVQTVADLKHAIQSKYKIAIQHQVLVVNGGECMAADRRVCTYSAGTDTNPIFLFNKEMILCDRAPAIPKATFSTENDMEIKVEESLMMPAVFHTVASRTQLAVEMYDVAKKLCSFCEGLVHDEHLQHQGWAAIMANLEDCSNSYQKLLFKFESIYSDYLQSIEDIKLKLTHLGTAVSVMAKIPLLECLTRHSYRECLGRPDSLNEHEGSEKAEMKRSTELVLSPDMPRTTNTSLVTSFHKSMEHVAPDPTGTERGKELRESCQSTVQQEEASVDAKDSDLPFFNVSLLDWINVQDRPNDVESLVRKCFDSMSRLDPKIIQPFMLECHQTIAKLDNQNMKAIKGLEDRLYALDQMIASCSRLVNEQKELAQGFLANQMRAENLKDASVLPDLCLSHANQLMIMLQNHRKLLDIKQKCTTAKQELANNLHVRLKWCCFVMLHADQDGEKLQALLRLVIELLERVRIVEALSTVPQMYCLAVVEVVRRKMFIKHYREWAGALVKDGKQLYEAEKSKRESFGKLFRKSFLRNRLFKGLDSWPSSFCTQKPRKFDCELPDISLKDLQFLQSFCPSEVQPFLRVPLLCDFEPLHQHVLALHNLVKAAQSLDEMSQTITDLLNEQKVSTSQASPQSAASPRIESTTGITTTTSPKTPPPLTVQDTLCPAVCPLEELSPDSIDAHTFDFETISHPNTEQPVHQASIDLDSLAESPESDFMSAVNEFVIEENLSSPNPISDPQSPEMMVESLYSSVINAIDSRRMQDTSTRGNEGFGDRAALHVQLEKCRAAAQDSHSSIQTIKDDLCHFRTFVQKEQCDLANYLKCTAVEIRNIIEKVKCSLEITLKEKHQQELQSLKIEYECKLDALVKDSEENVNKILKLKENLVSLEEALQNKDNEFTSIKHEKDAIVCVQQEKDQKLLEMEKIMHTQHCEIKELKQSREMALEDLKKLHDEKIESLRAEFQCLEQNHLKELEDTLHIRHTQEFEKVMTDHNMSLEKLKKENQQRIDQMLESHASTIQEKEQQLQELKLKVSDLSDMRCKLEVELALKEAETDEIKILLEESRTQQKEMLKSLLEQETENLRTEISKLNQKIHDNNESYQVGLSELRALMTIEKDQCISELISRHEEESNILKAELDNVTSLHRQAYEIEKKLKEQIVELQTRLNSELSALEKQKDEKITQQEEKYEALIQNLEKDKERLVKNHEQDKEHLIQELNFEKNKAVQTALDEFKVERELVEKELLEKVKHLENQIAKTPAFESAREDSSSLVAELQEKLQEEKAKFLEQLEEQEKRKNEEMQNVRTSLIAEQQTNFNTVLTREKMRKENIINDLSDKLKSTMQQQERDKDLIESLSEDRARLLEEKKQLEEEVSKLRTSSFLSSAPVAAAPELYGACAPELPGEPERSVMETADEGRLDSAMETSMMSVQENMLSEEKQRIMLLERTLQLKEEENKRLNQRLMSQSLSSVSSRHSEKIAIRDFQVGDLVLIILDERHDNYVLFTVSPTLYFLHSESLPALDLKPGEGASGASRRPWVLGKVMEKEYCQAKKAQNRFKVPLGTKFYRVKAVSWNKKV
UniProt O88597: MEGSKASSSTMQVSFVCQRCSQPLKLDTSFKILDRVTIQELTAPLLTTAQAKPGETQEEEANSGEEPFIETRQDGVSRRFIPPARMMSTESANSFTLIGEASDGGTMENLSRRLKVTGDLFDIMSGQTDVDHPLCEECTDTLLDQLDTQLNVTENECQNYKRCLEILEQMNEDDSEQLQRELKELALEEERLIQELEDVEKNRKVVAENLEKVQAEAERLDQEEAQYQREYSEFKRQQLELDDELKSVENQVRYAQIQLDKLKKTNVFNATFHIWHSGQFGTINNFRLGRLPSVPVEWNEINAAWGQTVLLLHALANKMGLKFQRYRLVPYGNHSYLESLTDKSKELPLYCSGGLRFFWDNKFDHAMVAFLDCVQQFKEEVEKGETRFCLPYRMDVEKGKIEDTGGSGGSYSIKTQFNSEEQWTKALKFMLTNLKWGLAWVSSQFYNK

Read-outs that look alike come from different tables or passages of the source. No constants are given. Whether binding was seen depends on the method and setting. In cells and extracts the contact can be indirect. Some entries that bind do so weakly or less than the wild type.

What all share (experiment): co-IP
For assay [1], the target named is Fip200 (mouse (endogenous in NIH-3T3 cells or primary C57BL/6J hepatocytes)) (UniProt Q9ESK9).
Assay [2] addresses T1, Plin3 (mouse (endogenous in NIH-3T3 cells or primary C57BL/6J hepatocytes)) (UniProt Q9DBG5).
T1 sequence: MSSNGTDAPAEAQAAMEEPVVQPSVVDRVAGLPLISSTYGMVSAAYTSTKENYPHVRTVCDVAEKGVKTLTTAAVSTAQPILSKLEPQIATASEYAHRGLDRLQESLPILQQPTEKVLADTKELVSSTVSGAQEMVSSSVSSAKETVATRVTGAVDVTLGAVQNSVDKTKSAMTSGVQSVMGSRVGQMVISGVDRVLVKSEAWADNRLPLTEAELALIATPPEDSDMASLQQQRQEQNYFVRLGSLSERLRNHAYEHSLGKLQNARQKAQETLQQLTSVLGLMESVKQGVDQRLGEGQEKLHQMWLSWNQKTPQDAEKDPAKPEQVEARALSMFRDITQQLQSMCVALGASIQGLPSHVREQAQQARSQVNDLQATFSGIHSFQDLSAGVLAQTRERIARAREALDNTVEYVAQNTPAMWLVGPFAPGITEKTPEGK

The target of assay [3] is T1, Plin3 (mouse (endogenous in NIH-3T3 cells or primary C57BL/6J hepatocytes)). The source holds these as a separate data set.

Turning to Beclin 1 (from UniProt O88597 1-448), the binding entry in assay [1] is on record as “binds”.
As to Fip200 (from UniProt Q9ESK9 1-1588), the binding entry in assay [2] and in assay [3] was “binds” in each case.
